# Measurements taken from the supplement of paper PMC12067093, “Discovery and optimisation of a covalent ligand for TRIM25 and its application to targeted protein ubiquitination” (Chemical Science, 2025).
# Chains of the proteins cited; added tags and fusions are not shown. Lines headed by an entry give the natural chain unless they say otherwise; changes in a name come on top.
# UniProt Q9UJX6, whole entry, looked up: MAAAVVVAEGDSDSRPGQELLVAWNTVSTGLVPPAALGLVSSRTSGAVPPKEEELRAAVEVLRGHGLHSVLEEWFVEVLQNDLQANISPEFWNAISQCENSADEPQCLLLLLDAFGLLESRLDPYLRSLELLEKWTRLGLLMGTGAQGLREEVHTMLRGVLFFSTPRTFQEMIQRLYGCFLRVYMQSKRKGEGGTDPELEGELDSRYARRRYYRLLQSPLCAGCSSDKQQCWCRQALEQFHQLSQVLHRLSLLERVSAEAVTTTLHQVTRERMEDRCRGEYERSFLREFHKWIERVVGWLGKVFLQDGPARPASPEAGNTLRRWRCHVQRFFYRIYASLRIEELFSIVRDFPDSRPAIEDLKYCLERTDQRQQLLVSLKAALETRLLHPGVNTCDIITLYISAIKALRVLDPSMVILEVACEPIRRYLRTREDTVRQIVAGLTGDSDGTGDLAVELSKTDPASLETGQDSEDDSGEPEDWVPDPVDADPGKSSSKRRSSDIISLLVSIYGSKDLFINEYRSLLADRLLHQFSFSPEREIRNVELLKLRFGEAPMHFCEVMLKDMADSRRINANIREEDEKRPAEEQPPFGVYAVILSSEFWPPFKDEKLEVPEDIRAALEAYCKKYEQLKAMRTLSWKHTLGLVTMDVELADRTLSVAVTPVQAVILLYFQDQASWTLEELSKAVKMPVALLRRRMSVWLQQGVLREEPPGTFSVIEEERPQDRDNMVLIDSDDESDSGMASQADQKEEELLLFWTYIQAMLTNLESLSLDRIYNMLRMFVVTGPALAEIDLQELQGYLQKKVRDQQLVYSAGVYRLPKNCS
# UniProt Q92667: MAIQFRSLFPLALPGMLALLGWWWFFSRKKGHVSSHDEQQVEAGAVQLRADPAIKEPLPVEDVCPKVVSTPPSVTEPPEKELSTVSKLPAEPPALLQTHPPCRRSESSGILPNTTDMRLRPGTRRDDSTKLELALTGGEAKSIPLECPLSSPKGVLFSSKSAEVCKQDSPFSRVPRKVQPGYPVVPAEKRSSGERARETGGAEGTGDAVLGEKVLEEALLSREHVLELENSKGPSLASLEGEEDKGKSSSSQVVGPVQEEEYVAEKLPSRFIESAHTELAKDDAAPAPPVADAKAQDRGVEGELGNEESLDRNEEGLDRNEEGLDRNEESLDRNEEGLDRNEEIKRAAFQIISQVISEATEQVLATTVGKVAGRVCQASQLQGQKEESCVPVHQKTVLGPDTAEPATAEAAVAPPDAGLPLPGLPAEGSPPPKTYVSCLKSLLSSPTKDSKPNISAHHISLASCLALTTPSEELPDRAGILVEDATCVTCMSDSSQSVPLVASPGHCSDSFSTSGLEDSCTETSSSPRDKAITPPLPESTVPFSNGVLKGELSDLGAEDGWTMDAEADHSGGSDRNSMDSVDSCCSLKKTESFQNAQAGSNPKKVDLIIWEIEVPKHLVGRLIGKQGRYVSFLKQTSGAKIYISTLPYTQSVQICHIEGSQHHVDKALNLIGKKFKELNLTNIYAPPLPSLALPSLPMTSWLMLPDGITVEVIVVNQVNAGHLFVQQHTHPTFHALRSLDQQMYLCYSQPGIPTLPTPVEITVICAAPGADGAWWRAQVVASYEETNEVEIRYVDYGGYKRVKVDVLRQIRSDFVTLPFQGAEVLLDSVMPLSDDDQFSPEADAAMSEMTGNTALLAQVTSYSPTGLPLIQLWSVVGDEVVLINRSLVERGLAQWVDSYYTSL
# UniProt P04075: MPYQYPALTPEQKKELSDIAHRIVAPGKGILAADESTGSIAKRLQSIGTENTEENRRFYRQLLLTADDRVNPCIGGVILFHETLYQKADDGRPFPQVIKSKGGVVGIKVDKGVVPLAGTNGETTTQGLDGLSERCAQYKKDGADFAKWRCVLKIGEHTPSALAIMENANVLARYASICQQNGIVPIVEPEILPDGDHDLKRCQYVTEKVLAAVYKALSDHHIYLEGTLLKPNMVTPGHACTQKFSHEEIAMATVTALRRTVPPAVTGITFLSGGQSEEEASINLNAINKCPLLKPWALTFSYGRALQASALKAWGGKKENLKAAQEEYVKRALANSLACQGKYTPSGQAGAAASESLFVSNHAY
# UniProt Q9UJX3, whole entry, looked up: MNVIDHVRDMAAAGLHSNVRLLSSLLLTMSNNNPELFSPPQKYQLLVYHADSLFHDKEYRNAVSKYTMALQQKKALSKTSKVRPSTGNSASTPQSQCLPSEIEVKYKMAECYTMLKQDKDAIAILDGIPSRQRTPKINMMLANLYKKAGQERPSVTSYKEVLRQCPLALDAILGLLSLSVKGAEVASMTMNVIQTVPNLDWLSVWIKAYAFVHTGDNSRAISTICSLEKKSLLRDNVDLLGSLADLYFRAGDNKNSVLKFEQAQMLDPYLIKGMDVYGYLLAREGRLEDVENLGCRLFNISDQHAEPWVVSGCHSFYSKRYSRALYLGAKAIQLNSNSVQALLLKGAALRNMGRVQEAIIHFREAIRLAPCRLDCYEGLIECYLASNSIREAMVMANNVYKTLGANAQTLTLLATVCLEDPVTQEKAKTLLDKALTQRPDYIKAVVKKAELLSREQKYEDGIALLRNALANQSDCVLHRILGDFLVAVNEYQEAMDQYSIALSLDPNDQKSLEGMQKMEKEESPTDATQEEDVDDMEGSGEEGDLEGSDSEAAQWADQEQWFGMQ
# UniProt Q8IWZ3: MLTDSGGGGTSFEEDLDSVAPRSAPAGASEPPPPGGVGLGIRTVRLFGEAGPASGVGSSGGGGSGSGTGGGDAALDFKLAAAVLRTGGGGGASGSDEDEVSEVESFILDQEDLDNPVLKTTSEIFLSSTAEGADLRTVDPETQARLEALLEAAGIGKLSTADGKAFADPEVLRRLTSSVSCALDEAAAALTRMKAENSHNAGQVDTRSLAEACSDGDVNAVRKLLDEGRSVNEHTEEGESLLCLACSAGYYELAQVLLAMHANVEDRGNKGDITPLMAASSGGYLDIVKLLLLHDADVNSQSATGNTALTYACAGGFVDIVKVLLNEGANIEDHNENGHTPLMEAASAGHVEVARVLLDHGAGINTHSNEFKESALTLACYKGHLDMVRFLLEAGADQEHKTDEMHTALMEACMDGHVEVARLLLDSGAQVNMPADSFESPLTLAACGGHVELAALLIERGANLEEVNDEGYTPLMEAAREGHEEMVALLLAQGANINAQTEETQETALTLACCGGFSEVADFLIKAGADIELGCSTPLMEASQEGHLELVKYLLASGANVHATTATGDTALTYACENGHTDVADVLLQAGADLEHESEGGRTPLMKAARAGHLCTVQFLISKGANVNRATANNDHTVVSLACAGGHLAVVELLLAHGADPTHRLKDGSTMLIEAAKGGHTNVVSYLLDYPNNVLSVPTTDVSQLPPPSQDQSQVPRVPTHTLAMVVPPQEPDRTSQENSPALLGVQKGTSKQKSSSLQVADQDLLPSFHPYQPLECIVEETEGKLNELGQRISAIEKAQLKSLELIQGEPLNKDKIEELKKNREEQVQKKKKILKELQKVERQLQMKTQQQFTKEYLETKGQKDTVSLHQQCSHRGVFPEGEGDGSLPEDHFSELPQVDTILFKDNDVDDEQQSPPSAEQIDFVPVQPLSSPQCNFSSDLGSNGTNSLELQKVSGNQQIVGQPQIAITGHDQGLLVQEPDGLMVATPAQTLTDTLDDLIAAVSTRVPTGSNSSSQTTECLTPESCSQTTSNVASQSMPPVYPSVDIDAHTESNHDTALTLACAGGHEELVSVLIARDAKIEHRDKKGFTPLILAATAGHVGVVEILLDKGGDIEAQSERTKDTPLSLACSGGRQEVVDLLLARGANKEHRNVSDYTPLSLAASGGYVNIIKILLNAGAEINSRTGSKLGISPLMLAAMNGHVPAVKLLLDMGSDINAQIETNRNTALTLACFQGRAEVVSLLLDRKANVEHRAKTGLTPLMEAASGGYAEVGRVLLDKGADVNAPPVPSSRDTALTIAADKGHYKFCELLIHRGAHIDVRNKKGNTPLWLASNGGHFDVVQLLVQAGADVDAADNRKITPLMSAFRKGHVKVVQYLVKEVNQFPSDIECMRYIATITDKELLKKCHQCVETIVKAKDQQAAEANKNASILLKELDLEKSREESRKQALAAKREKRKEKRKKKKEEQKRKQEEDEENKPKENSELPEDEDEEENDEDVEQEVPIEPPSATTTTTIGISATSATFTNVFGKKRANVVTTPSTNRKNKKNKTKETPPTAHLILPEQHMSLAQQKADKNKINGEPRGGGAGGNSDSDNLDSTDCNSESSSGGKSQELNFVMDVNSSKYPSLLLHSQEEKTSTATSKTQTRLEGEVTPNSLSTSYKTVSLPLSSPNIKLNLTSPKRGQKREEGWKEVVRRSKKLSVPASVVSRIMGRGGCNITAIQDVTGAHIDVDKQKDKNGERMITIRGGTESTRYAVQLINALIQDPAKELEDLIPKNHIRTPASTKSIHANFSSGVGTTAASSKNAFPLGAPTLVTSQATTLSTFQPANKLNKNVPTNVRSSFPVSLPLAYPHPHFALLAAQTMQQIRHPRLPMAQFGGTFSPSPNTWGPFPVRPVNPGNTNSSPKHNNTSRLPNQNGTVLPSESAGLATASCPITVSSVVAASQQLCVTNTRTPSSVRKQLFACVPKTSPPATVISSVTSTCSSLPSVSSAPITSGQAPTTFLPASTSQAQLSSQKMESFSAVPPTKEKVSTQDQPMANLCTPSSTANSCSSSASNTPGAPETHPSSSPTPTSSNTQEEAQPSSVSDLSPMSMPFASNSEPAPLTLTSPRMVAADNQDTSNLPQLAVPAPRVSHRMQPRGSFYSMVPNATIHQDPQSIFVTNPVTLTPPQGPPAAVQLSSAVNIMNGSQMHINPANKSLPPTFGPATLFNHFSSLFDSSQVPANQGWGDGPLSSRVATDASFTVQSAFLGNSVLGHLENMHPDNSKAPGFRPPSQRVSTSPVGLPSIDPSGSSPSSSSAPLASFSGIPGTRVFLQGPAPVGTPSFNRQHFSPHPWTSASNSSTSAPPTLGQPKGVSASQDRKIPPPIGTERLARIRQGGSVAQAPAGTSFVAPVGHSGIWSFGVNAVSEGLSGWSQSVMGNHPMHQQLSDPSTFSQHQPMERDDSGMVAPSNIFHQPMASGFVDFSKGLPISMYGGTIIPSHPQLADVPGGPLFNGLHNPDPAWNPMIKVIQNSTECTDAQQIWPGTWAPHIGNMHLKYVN
# UniProt Q02040: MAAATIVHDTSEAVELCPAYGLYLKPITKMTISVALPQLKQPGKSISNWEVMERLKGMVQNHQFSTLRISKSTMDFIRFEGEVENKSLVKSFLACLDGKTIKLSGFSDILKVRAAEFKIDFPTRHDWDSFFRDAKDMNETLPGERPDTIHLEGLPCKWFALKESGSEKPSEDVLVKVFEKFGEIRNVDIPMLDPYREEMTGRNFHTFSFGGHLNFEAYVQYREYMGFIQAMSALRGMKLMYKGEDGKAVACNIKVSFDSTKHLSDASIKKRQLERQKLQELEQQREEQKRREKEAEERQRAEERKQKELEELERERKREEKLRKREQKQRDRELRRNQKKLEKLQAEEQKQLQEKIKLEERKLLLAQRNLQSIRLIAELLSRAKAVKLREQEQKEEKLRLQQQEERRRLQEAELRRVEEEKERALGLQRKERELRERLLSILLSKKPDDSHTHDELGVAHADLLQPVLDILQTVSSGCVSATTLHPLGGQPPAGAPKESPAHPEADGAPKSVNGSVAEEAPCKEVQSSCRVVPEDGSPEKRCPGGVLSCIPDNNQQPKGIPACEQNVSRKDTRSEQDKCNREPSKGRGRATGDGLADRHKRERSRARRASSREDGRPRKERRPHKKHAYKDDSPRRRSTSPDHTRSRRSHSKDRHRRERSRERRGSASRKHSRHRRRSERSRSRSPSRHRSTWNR
# UniProt P49189: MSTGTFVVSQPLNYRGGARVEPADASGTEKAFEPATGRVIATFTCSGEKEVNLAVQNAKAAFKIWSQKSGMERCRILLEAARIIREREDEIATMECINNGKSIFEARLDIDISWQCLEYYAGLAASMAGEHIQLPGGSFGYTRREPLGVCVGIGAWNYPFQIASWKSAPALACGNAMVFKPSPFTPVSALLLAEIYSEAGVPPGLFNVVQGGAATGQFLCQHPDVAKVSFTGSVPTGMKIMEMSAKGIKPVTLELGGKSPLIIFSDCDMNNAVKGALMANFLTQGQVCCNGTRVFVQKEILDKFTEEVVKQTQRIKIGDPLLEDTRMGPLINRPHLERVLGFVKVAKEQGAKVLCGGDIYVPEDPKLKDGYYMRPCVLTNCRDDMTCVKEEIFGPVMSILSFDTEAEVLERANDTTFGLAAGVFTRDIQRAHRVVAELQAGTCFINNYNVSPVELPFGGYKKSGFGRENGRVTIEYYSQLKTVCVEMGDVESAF
# Some of the results follow.
# Compound: Cc1cc(ccc1-c1ccccc1)C(=O)N1CCCN(CC1)C(=O)CCl [compound 10]
# Test: probe-labelled cysteine peptide fold change vs DMSO (competition) (log2 fold change); higher = less target engagement (more negative = stronger competition)
# Details: THP-1, incubation time: 4 h
# 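Further: competitive profiling in live THP-1 cells: cysteine peptides tagged with an iodoacetamide desthiobiotin (IA-DTB) probe, intensity after compound treatment relative to DMSO-treated cells.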
Target,probe-labelled cysteine peptide fold change (10 µM),probe-labelled cysteine peptide fold change (50 µM)
ANAPC2_Q9UJX6_421_VLDPSMVILEVACEPIRR (UniProt Q9UJX6),-0.115,0.0681
AGPS_O00116_247_YNLCIIPIGGGTSVSYGLMCPADETR (UniProt O00116),-0.128,-1.53e-05
AIFM1_O95831_256_CLIATGGTPR (UniProt O95831),0.288,0.0894
AKAP1_Q92667_64_EPLPVEDVCPK (UniProt Q92667),-0.161,0.347
ALDOA_P04075_339_ALANSLACQGK (UniProt P04075),-0.0738,-0.0749
ANAPC2_Q9UJX6_394_LLHPGVNTCDIITLYISAIK (UniProt Q9UJX6),-0.231,-0.417
ALDOA_P04075_178_YASICQQNGIVPIVEPEILPDGDHDLK (UniProt P04075),0.181,0.407
ANAPC7_Q9UJX3_259_AISTICSLEK (UniProt Q9UJX3),-0.0861,-0.74
AHCTF1_Q8WYP5_1261_CAVPVETEWLK (UniProt Q8WYP5),-0.538,-0.684
AGPS_O00116_297_ESGYCTGHEPDSLEFSTVGGWVSTR (UniProt O00116),-0.105,-0.0291
ALDOA_P04075_202_CQYVTEK (UniProt P04075),0.126,0.0285
ANKHD1_Q8IWZ3_1716_GGCNITAIQDVTGAHIDVDK (UniProt Q8IWZ3),0.183,0.0508
ANAPC1_Q9H1A4_437_VFITSDLCGQK (UniProt Q9H1A4),-0.00469,-0.0717
ALS2_Q96Q42_1454_SFCTGK (UniProt Q96Q42),-0.119,-0.88
AKR1B1_P15121_187_PAVNQIECHPYLTQEK (UniProt P15121),-0.0518,0.23
ALS2_Q96Q42_916_LLCESSNR (UniProt Q96Q42),-0.0532,-0.0888
AKAP17A_Q02040_522_SVNGSVAEEAPCK (UniProt Q02040),-0.354,-0.247
ALDOC_P09972_240_ALSDHHVYLEGTLLKPNMVTPGHACPIK (UniProt P09972),-0.228,-0.369
ALDH9A1_P49189_484_TVCVEMGDVESAF (UniProt P49189),-0.0957,-0.0819
AKAP8L_Q9ULX6_128_YDSYESCDSR (UniProt Q9ULX6),-0.217,-0.44
ALG11_Q2TAA5_345_LVLIGGCR (UniProt Q2TAA5),0.00163,0.0992

Target,probe-labelled cysteine peptide fold change (10 µM),probe-labelled cysteine peptide fold change (50 µM)
AKAP1_Q92667_147_SIPLECPLSSPK (UniProt Q92667),-0.399,-0.569
AMACR_Q9UHK6_293_AEWCQIFDGTDACVTPVLTFEEVVHHDHNK (UniProt Q9UHK6),0.166,0.128
AHNAK_Q09666_108_EVFSSCSSEVVLSGDDEEYQR (UniProt Q09666),-0.0904,0.207
ALDH16A1_Q8IZ83_249_VAFCGAPEEGR (UniProt Q8IZ83),-0.131,-0.421
ALDOA_P04075_73_VNPCIGGVILFHETLYQK (UniProt P04075),0.222,0.207
ALDH16A1_Q8IZ83_350_GAAACDLVQR (UniProt Q8IZ83),0.0125,-0.0468
ALDOA_P04075_240_ALSDHHIYLEGTLLKPNMVTPGHACTQK (UniProt P04075),0.021,-0.182
ALDH3A2_P51648_50_DILTAIAADLCK (UniProt P51648),-0.0608,0.0936
AKAP9_Q99996_836_QQCIQLNEEIEK (UniProt Q99996),0.178,0.193
ALDH6A1_Q02252_149_GLQVVEHACSVTSLMMGETMPSITK (UniProt Q02252),-0.0217,-0.112
AIMP1_Q12904_211_MVILLCNLK (UniProt Q12904),0.0571,0.381
ANAPC5_Q9UJX4_312_YAALNLAALHCR (UniProt Q9UJX4),0.0158,-0.0174
ANAPC7_Q9UJX3_131_VRPSTGNSASTPQSQCLPSEIEVK (UniProt Q9UJX3),-0.28,-0.812
ANK3_Q12955_4233_LDDSPDQCR (UniProt Q12955),0.0929,0.374
ANKFY1_Q9P2R3_34_RCALLAAQANK (UniProt Q9P2R3),0.0962,0.224
ALDOA_P04075_178_YASICQQNGIVPIVEPEILPDGDHDLKR (UniProt P04075),0.281,-0.12
AMPD2_Q01433_263_YMALSLQSFCPTTR (UniProt Q01433),-0.0503,0.0846
AKAP17A_Q02040_95_SFLACLDGK (UniProt Q02040),0.0192,0.159
ALDH9A1_P49189_96_EREDEIATMECINNGK (UniProt P49189),-0.287,0.0957
ANKHD1_Q8IWZ3_1390_EVNQFPSDIECMR (UniProt Q8IWZ3),0.2,0.328
